Measurements: article PMC10933368

Amino acid sequences for entries named in this document (tags omitted). A change or cut given only in a name is not applied to a line headed by its entry.
UniProt E9ALS6: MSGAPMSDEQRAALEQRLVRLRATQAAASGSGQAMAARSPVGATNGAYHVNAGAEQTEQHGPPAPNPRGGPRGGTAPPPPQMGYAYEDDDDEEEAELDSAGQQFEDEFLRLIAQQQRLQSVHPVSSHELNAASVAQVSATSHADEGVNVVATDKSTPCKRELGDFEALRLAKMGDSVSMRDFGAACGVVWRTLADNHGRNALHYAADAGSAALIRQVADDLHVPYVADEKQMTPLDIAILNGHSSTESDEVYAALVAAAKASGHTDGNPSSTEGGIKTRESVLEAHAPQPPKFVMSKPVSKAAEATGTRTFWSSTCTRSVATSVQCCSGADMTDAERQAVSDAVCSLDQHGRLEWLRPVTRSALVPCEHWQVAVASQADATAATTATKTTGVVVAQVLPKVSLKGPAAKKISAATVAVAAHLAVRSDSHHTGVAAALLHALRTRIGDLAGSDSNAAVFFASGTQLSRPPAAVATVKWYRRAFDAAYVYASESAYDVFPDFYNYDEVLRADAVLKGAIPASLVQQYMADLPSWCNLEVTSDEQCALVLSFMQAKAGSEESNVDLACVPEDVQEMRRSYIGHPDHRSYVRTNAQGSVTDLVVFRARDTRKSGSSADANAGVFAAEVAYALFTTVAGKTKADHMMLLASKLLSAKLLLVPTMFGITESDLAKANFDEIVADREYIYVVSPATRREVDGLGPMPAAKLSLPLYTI
UniProt E9AQR7: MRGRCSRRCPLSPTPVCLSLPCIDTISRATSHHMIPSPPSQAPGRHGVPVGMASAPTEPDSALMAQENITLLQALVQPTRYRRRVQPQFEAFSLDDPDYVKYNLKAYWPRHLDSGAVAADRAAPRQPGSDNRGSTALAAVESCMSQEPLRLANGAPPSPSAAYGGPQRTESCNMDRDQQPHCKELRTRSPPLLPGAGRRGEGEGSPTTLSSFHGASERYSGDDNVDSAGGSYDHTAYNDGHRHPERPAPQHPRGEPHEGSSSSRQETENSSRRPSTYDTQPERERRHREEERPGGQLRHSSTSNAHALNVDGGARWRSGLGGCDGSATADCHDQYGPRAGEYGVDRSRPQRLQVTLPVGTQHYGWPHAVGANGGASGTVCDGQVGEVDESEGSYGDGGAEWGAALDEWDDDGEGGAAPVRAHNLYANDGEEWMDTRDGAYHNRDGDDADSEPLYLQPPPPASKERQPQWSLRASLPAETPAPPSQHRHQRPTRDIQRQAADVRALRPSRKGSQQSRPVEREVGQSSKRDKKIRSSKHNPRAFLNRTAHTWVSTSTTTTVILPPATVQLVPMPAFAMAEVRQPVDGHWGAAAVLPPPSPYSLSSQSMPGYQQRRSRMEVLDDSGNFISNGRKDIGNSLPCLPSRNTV
UniProt E9B552: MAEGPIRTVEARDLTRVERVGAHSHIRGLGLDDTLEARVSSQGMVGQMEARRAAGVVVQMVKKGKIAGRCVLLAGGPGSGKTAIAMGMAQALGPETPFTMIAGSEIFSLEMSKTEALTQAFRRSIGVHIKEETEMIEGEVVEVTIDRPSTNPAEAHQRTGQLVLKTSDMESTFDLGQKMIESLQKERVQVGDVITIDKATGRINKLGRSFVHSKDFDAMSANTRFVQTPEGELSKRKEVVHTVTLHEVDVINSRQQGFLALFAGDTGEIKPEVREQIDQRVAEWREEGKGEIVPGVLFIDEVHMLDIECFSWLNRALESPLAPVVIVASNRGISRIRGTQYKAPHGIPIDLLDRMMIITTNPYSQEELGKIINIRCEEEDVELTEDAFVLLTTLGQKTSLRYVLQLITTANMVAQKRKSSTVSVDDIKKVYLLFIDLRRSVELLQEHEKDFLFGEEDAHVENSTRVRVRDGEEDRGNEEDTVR
UniProt E9AM47: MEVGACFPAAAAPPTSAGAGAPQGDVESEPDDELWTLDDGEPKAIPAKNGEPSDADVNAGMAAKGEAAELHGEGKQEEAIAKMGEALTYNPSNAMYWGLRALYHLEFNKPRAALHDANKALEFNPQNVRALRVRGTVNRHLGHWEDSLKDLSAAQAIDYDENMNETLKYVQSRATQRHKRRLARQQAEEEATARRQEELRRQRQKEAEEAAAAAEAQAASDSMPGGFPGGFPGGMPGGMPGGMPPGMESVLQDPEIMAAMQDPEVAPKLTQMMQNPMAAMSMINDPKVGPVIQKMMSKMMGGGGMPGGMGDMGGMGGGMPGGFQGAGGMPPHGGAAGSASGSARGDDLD
UniProt E9B5D9: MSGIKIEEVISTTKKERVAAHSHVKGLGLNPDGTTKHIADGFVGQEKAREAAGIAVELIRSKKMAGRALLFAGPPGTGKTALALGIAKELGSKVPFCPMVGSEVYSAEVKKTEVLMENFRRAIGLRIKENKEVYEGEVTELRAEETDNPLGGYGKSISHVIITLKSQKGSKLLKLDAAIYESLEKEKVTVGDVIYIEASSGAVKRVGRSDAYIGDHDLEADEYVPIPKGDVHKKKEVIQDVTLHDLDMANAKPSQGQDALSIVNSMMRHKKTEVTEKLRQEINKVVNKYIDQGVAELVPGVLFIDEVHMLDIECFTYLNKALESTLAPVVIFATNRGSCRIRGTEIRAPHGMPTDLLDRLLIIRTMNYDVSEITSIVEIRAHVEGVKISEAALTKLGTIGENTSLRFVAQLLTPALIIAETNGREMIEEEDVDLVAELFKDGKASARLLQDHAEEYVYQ

How the values were obtained:
[1] = molecular target: RPTOR1 (LmxM.25.0610), L. mexicana (L. mexicana) (UniProt E9AXD8); assay: affinity purification with mass spectrometry; Parasites cross-linked with 1 mM DSP (10 min, 26 °C), lysed in 1% IgePal-CA-630, 50 mM Tris pH 7.5, 250 mM NaCl, 1 mM EDTA; Twin-Strep baits held on MagStrep XT resin (2 h, 4 °C), eluted with 50 mM biotin; label-free quantification against the control bait LmxM.29.3580, SAINTq, FDR 10%
[2] = molecular target: TOR1 (LmxM.36.6320), L. mexicana (L. mexicana) (UniProt E9AU66); assay: as above

| binding [1] | binding [2] | Substance |
| --- | --- | --- |
| binds | binds | LmxM.08_29.1470 (from UniProt E9ALS6) |
|  | binds | RPTOR1 (LmxM.25.0610), L. mexicana (from UniProt E9AXD8) |
| binds | binds | LmxM.16.1080 (from UniProt E9AQR7) |
|  | binds | RUVBL2 (LmxM.33.2610) (from UniProt E9B552) |
| binds |  | TOR1 (LmxM.36.6320), L. mexicana (from UniProt E9AU66) |
|  | binds | HIP (HSC-70 interacting protein, LmxM.08_29.0320) (from UniProt E9AM47) |
|  | binds | RUVBL1 (LmxM.33.3500) (from UniProt E9B5D9) |

No constants are given. Whether binding was seen depends on the method and setting. Binding seen in cells or lysates may run through a third protein. A yes stands for co-enrichment or nearness to the bait. Other partners may have been found.
